Results: article PMC6601512
No constants are given. Whether binding was seen depends on the method and setting. In cells and extracts the contact can be indirect. A yes stands for co-enrichment or nearness to the bait. Other partners may have been found. A no says only that the protein was not detected with the bait. For part of these data: Sequences can lack the tags named with a protein.

T1: PID-3::mCherry::Myc (C. elegans) (UniProt O76616)
T1 sequence: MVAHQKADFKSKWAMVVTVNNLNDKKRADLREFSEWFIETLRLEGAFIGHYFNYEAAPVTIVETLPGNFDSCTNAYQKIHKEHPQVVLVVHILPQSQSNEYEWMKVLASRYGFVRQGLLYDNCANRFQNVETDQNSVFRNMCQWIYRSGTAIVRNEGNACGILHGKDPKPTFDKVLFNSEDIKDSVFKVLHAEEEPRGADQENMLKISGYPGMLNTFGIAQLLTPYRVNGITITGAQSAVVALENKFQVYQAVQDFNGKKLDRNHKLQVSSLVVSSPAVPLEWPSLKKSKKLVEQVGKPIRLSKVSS

T2: PID-1 (piRNA-induced silencing-defective 1) (C. elegans (endogenous in nongravid adult worms)) (UniProt Q19541)
T2 sequence: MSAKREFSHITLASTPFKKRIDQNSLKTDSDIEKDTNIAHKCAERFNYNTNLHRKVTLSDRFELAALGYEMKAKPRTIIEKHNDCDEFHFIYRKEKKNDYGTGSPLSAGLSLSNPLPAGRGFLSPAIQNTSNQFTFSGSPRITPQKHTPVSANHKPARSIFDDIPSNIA

T3: TOFU-6::GFP::HA (C. elegans) (UniProt Q09293)
T3 sequence: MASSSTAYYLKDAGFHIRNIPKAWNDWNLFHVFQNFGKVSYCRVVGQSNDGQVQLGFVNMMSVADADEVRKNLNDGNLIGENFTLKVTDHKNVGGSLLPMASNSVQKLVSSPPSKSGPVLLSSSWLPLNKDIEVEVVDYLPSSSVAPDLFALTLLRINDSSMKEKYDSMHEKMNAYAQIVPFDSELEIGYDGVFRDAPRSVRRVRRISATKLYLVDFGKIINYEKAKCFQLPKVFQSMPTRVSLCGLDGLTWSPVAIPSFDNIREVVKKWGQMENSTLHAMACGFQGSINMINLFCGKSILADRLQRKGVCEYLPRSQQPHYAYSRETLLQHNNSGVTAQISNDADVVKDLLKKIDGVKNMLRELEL

T4: ERH-2::GFP::OLLAS (C. elegans) (UniProt Q20057)
T4 sequence: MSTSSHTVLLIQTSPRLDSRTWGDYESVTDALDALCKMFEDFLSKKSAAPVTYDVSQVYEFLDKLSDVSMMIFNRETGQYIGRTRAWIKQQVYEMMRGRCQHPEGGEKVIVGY

T5: 3xFlag::mCherry::IFE-3 (C. elegans) (UniProt O61955)
T5 sequence: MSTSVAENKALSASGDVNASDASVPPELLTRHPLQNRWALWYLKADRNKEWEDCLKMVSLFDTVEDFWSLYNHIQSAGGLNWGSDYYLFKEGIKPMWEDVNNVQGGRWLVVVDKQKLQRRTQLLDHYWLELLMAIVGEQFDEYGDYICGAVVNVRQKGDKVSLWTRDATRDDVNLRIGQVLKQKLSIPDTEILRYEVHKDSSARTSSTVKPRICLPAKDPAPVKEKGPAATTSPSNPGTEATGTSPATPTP

T6: PID-1 (piRNA-induced silencing-defective 1) (C. elegans (endogenous in nongravid adult worms)), Q19541
T6 chain: T2 sequence

B1: ERH-2 (protein, UniProt Q20057 1-113)
chain: T4 sequence
B2: IFE-3 (protein, UniProt O61955 1-251)
chain: T5 sequence
B3: PID-3 (protein, UniProt O76616 1-307)
chain: T1 sequence
B4: TOST-1 (twenty-one U pathway antagonist) (protein, UniProt Q18490 1-142)
chain: MTTAIQYQVIPLADREHSNKVASILENKYKTATNKRITLNERFGVLEKGYTIQATEPETVKNDSDVFFVVHDRNLNSKKEFVENYLAKNPIVNSPEKVFEEEDKENAPTKKAVLKPSSTDEKKLTSSDIYIQEITRSILQSV
B5: IFE-1 (protein, UniProt O45551 1-212)
chain: MTETEQTTAPIYPLKRNWTWWYLNDERNKSWEDRLKKVYTFNTVSEFWALYDAIRPPSGLNALCDYNVFRDDIQPMWEVPENSNGGRWLIVIDKGKTPEMVDAIWLEILMALVGEQFGKDMESICGLVCNVRGKGSKISVWTKDCNDDETNMRIGVVLKEKLMAASKDHSKPLFDVIRYEDHESCQKKTSSVVKAKLSLHSSDAPVAEKSAV
B6: TOFU-6 (protein, UniProt Q09293 1-367)
chain: T3 sequence
B7: ERH-1, Q22640 1-103 (protein)
chain: MSHTILLLQPTDNIESRSWSDYENTTECLEGICRVYEEYLKKKVPAQNEITYDISHLFEFIDDLKDLSMLVLDNTTYTYVPHNKQYVKESIYKLMNNRLNNQH
B8: ERH-1 (protein, UniProt Q22640 1-103)
chain: B7 chain

Assays:
[1] = target: T1, PID-3::mCherry::Myc (C. elegans); assay: affinity purification with mass spectrometry; RFP-Trap (mCherry) or GFP-Trap immunoprecipitation of tagged transgenic proteins from nongravid adult worm extracts, 2 h at 4°C, 150 mM NaCl, pH 7.5; nontransgenic wild type as control; PID-3 also with RNase treatment and in the absence of PID-1
[2] = target: T2, PID-1 (piRNA-induced silencing-defective 1) (C. elegans (endogenous in nongravid adult worms)); assay: affinity purification with mass spectrometry; immunoprecipitation with PID-1-specific antibodies from nongravid adult worm extracts, label-free quantification, quadruplicates; pid-1 loss-of-function strains as control
[3] = target: T3, TOFU-6::GFP::HA (C. elegans); assay: affinity purification with mass spectrometry; RFP-Trap (mCherry) or GFP-Trap immunoprecipitation of tagged transgenic proteins from nongravid adult worm extracts, 2 h at 4°C, 150 mM NaCl, pH 7.5; nontransgenic wild type as control; PID-3 also with RNase treatment and in the absence of PID-1
[4] = target: T4, ERH-2::GFP::OLLAS (C. elegans); assay: as above
[5] = target: T5, 3xFlag::mCherry::IFE-3 (C. elegans); assay: as above
[6] = target: T6, PID-1 (piRNA-induced …); assay: affinity purification with mass spectrometry; immunoprecipitation with PID-1-specific antibodies from nongravid adult worm extracts, label-free quantification, quadruplicates; pid-1 loss-of-function strains as control; details: remark: other sources report otherwise

Binder	binding [1]	binding [3]	binding [4]	binding [5]	further results
B1	binds	–	–	–	binding [2]: binds
B2	–	binds	–	–	–
B3	–	–	binds	–	–
B4	–	–	binds	–	binding [2]: no binding
B5	binds	binds	–	binds	–
B6	–	–	–	binds	–
B7	–	–	–	–	binding [6]: no binding
B8	no binding	no binding	no binding	no binding	–
